Counter-ions that a name gives are not always drawn. This is one part of the list. Hit calls seldom repeat between salt and free forms of one compound.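 Kinases were expressed as nanoluciferase fusions in K562 cells and luminescence was read every 4 h between 2 and 18 h as percent of control, DMSO set to 100% and a positive control to 0%. A time point counts as decreased when the signal drops significantly (2 sigma). The hit call is the authors' own, does not follow from the count of time points alone, and its rule is not shown.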
Assays:
Assay in all cases: kinase-Nluc reporter destabilization hit call (1 = scored as downregulated) (binary); higher = compound decreases kinase abundance
Conditions in all cases: K562, 2-18 h
MAPK1 = MAPK1 (UniProt P28482)
MAPK4 = MAPK4 (UniProt P31152)
MAPKAPK2 = MAPKAPK2 (UniProt P49137)
MKNK1 = MKNK1 (UniProt Q9BUB5)
NTRK2 = NTRK2 (UniProt Q16620)
NTRK3 = NTRK3 (UniProt Q16288)
PAK4 = PAK4 (UniProt O96013)
PBK = PBK (UniProt Q96KB5)
PDGFRB = PDGFRB (UniProt P09619)
PDK1 = PDK1 (UniProt Q15118)

By UniProt entry, the sequences of proteins in these tests, tags left out. Where a name states a change or a piece, a line headed by the entry shows the natural chain unless it says otherwise.
UniProt P28482, whole entry: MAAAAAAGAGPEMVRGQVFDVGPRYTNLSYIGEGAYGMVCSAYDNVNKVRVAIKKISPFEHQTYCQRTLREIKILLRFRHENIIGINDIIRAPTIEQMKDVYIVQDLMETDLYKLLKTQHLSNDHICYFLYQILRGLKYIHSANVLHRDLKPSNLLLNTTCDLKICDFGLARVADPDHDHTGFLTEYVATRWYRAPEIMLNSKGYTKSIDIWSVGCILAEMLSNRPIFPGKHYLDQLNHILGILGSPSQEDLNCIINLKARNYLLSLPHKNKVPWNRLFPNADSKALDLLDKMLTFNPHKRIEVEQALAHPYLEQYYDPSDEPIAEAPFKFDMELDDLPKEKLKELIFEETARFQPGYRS
UniProt P31152, whole entry: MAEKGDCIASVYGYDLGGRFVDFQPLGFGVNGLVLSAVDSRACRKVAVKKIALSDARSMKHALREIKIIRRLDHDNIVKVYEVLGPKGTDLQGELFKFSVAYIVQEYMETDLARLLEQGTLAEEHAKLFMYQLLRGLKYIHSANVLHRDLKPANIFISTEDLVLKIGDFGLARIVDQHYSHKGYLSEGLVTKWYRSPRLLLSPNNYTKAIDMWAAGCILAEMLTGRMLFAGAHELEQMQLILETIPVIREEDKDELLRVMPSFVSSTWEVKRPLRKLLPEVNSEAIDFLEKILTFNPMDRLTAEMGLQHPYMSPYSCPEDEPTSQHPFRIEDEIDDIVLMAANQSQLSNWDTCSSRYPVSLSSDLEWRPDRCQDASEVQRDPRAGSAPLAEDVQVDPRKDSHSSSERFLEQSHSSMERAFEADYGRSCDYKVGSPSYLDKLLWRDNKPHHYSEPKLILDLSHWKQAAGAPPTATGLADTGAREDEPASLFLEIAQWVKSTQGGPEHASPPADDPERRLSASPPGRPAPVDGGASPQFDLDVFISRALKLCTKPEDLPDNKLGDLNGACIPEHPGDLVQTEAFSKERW
UniProt P49137, whole entry, looked up: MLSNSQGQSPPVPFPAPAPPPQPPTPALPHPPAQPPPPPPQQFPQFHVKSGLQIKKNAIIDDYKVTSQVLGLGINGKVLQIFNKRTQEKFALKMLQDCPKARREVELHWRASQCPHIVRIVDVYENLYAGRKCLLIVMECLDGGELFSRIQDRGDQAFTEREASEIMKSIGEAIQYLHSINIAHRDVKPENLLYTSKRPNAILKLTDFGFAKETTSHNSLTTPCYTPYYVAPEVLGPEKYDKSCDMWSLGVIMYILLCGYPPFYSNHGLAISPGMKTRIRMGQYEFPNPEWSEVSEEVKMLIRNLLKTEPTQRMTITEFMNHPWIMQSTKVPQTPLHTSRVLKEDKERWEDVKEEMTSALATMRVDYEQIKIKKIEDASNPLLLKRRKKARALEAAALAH
UniProt Q9BUB5: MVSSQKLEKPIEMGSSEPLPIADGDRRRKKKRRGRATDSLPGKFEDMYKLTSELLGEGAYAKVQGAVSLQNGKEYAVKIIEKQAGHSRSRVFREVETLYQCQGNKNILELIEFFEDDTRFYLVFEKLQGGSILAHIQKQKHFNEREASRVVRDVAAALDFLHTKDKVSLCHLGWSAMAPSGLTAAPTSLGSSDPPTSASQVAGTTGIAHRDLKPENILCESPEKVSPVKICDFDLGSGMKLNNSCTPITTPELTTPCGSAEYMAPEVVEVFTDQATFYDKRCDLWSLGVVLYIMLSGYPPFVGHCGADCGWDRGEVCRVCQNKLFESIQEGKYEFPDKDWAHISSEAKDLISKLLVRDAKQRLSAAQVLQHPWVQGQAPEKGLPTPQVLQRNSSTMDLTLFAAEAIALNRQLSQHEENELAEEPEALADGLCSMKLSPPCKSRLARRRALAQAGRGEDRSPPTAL
UniProt Q16620, whole entry, looked up: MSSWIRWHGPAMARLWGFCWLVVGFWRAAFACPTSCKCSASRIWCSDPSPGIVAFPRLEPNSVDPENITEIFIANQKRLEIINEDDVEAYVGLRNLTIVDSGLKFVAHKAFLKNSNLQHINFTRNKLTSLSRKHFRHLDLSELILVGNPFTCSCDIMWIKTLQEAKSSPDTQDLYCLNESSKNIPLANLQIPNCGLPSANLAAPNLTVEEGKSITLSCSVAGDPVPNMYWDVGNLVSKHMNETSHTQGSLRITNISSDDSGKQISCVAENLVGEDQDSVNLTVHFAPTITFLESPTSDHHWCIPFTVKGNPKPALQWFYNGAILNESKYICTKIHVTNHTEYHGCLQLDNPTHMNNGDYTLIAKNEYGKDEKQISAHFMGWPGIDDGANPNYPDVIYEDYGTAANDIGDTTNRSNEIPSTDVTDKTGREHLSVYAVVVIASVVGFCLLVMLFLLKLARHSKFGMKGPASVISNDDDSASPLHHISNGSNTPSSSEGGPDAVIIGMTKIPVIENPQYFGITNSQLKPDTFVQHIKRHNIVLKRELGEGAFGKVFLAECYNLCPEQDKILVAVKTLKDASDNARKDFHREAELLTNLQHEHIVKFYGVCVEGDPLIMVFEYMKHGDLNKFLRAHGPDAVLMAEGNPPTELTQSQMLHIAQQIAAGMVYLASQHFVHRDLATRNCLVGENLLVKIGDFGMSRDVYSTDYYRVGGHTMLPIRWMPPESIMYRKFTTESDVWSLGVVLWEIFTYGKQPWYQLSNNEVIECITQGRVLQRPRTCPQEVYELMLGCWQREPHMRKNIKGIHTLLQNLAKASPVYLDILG
UniProt Q16288, whole entry, looked up: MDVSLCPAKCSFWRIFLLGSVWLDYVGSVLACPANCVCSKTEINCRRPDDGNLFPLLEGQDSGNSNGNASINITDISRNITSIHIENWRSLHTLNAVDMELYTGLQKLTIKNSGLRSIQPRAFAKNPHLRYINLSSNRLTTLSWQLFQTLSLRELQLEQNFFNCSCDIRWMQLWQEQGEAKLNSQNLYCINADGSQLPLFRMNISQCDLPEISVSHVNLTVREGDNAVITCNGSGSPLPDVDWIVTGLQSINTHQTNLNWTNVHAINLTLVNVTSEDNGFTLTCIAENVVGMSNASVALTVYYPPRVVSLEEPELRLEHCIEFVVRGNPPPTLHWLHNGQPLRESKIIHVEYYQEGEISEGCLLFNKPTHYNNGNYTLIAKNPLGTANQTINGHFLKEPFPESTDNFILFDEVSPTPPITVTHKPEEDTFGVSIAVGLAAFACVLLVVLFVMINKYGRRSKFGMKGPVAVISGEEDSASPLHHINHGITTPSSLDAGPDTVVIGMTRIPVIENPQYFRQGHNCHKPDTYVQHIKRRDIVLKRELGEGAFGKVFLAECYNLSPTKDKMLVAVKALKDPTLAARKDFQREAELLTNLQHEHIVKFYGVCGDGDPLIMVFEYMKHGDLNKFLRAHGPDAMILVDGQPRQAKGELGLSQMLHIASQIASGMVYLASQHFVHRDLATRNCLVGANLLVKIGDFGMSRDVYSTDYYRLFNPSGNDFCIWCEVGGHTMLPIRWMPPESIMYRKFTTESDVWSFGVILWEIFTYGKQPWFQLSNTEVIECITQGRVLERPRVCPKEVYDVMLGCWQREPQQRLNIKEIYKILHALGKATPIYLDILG
UniProt O96013: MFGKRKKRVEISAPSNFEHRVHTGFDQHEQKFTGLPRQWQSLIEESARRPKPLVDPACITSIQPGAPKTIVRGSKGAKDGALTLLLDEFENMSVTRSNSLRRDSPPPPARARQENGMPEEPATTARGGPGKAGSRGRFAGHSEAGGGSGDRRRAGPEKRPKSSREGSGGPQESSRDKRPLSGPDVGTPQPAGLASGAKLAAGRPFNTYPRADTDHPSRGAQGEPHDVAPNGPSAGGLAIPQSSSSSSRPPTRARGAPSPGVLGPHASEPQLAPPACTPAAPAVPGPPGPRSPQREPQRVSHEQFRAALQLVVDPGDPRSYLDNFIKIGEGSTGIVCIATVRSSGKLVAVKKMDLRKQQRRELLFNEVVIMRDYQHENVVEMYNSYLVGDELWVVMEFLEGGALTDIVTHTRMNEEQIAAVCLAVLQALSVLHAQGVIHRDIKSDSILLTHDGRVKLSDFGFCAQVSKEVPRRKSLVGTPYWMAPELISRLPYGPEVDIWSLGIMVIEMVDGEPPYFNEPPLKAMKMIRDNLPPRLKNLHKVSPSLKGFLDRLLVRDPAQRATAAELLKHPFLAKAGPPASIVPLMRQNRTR
UniProt Q96KB5: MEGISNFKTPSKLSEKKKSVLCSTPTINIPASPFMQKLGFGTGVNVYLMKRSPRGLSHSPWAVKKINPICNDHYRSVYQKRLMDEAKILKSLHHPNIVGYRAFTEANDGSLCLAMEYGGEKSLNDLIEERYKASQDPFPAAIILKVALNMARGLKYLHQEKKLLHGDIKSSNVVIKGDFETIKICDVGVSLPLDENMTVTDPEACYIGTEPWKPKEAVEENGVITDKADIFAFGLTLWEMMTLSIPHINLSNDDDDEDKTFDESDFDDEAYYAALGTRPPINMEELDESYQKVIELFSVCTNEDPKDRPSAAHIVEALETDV
UniProt P09619, whole entry: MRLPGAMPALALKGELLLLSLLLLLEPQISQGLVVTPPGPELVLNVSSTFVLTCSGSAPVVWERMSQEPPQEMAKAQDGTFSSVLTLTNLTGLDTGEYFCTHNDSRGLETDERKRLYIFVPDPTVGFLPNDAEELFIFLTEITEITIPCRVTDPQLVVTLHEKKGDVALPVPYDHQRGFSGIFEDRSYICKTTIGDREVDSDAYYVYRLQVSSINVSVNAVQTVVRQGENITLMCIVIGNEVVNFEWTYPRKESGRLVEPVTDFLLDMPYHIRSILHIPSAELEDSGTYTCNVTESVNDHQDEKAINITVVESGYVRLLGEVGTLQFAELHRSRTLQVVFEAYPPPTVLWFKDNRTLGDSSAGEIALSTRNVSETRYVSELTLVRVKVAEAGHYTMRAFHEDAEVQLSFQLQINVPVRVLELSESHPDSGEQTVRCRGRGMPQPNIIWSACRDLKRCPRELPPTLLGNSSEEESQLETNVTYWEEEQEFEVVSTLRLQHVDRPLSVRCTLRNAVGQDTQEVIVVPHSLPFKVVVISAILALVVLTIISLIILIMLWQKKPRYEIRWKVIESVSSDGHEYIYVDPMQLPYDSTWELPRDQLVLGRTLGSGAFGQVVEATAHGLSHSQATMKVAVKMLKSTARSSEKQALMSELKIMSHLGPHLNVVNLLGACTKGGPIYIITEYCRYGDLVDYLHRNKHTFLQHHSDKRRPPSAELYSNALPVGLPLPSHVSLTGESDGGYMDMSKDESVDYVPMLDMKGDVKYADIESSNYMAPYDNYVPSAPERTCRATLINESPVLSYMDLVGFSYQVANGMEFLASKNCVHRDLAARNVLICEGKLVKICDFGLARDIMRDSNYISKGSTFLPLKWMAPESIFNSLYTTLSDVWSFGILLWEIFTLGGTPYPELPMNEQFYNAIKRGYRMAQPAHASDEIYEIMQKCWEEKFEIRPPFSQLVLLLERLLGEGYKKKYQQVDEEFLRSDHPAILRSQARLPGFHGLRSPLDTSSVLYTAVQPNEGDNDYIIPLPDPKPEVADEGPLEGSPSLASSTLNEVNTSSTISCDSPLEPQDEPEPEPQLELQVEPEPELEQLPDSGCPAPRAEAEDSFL
UniProt Q15118, whole entry, looked up: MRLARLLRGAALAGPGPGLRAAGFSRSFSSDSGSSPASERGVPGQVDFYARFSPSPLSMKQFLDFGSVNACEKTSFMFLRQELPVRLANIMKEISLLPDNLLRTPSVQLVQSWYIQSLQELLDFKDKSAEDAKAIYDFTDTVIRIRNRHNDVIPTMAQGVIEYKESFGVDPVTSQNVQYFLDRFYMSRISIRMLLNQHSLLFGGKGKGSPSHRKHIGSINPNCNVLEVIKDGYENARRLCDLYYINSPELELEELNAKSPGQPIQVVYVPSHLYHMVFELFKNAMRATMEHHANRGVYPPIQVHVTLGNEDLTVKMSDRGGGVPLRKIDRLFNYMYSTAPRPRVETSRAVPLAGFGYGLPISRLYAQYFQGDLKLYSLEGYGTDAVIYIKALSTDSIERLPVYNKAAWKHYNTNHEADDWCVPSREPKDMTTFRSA

Measured: kinase-Nluc reporter destabilization hit call

Oc1cccc(-c2nc(N3CCOCC3)c3oc4ncccc4c3n2)c1
inactive: MAPK1; 10 µM 0 | MAPK4; 10 µM 0 | MAPKAPK2; 10 µM 0 | MKNK1; 10 µM 0 | NTRK2; 10 µM 0 | NTRK3; 10 µM 0 | PAK4; 10 µM 0 | PBK; 10 µM 0 | PDGFRB; 10 µM 0 | PDK1; 10 µM 0

COc1cc2c(Oc3ccc4[nH]c(C)cc4c3F)ncnc2cc1OCCCN1CCCC1 [Cediranib]
inactive: MAPK1; 2.5 µM 0 | MAPK4; 2.5 µM 0 | MAPKAPK2; 2.5 µM 0 | MKNK1; 2.5 µM 0 | NTRK2; 2.5 µM 0 | NTRK3; 2.5 µM 0 | PAK4; 2.5 µM 0 | PBK; 2.5 µM 0 | PDGFRB; 2.5 µM 0 | PDK1; 2.5 µM 0

N=C(N)NC(=O)c1nc(Cl)c(N)nc1N [Amiloride (hydrochloride)]
inactive: MAPK1; 10 µM 0 | MAPK4; 10 µM 0 | MAPKAPK2; 10 µM 0 | MKNK1; 10 µM 0 | NTRK2; 10 µM 0 | NTRK3; 10 µM 0 | PAK4; 10 µM 0 | PBK; 10 µM 0 | PDGFRB; 10 µM 0 | PDK1; 10 µM 0

c1cc(-c2cnn3cc(-c4ccc(OCCN5CCCCC5)cc4)cnc23)ccn1 [Dorsomorphin]
inactive: MAPK1; 2.5 µM 0 | MAPK4; 2.5 µM 0 | MAPKAPK2; 2.5 µM 0 | MKNK1; 2.5 µM 0 | NTRK2; 2.5 µM 0 | NTRK3; 2.5 µM 0 | PAK4; 2.5 µM 0 | PBK; 2.5 µM 0 | PDGFRB; 2.5 µM 0 | PDK1; 2.5 µM 0

O=C(Nc1ccncc1)Nc1ccc(-c2nc(N3CCOCC3)nc(N3C4CCC3COC4)n2)cc1 [PKI-179 (hydrochloride)]
inactive: MAPK1; 2.5 µM 0 | MAPK4; 2.5 µM 0 | MAPKAPK2; 2.5 µM 0 | MKNK1; 2.5 µM 0 | NTRK2; 2.5 µM 0 | NTRK3; 2.5 µM 0 | PAK4; 2.5 µM 0 | PBK; 2.5 µM 0 | PDGFRB; 2.5 µM 0 | PDK1; 2.5 µM 0

Cc1ccc(NC(=O)c2ccc(CN3CCN(C)CC3)cc2)cc1Nc1nc(-c2cccnc2)cs1 [Masitinib]
inactive: MAPK1; 2.5 µM 0 | MAPK4; 2.5 µM 0 | MAPKAPK2; 2.5 µM 0 | MKNK1; 2.5 µM 0 | NTRK2; 2.5 µM 0 | NTRK3; 2.5 µM 0 | PAK4; 2.5 µM 0 | PBK; 2.5 µM 0 | PDGFRB; 2.5 µM 0 | PDK1; 2.5 µM 0

CCN(CC)Cc1ccc(OC)c(-c2cc3c(-c4ccc(C(=O)O)c(C(C)C)c4)ccnc3[nH]2)c1
inactive: MAPK1; 2.5 µM 0 | MAPK1; 10 µM 0 | MAPK4; 2.5 µM 0 | MAPK4; 10 µM 0 | MAPKAPK2; 2.5 µM 0 | MAPKAPK2; 10 µM 0 | MKNK1; 2.5 µM 0 | MKNK1; 10 µM 0 | NTRK2; 2.5 µM 0 | NTRK2; 10 µM 0 | NTRK3; 2.5 µM 0 | NTRK3; 10 µM 0 | PAK4; 2.5 µM 0 | PAK4; 10 µM 0 | PBK; 2.5 µM 0 | PBK; 10 µM 0 | PDGFRB; 2.5 µM 0 | PDGFRB; 10 µM 0 | PDK1; 2.5 µM 0 | PDK1; 10 µM 0

N=C(N)NC(=O)c1nc(Cl)c(N)nc1N [Amiloride hydrochloride dihydrate]
inactive: MAPK1; 10 µM 0 | MAPK4; 10 µM 0 | MAPKAPK2; 10 µM 0 | MKNK1; 10 µM 0 | NTRK2; 10 µM 0 | NTRK3; 10 µM 0 | PAK4; 10 µM 0 | PBK; 10 µM 0 | PDGFRB; 10 µM 0 | PDK1; 10 µM 0

Cc1nc2ccc(-n3c(-c4nonc4N)nc4cnccc43)cc2[nH]1
inactive: MAPK1; 10 µM 0 | MAPK4; 10 µM 0 | MAPKAPK2; 10 µM 0 | MKNK1; 10 µM 0 | NTRK2; 10 µM 0 | NTRK3; 10 µM 0 | PAK4; 10 µM 0 | PBK; 10 µM 0 | PDGFRB; 10 µM 0 | PDK1; 10 µM 0

C[C@H](Nc1cc(-c2cnn(C)c2)cc(Nc2cnccn2)n1)c1ccc(F)cc1 [Ilginatinib hydrochloride]
inactive: MAPK1; 2.5 µM 0 | MAPK4; 2.5 µM 0 | MAPKAPK2; 2.5 µM 0 | MKNK1; 2.5 µM 0 | NTRK2; 2.5 µM 0 | NTRK3; 2.5 µM 0 | PAK4; 2.5 µM 0 | PBK; 2.5 µM 0 | PDGFRB; 2.5 µM 0 | PDK1; 2.5 µM 0

C=CC(=O)Nc1cc2c(Nc3ccc(F)c(Cl)c3)ncnc2cc1C#CC(C)(C)N1CCN(C)CC1
inactive: MAPK1; 2.5 µM 0 | MAPK4; 2.5 µM 0 | MAPKAPK2; 2.5 µM 0 | MKNK1; 2.5 µM 0 | NTRK2; 2.5 µM 0 | NTRK3; 2.5 µM 0 | PAK4; 2.5 µM 0 | PBK; 2.5 µM 0 | PDGFRB; 2.5 µM 0 | PDK1; 2.5 µM 0

C[C@@H](N)[C@H]1CC[C@H](C(=O)Nc2ccncc2)CC1
inactive: MAPK1; 10 µM 0 | MAPK4; 10 µM 0 | MAPKAPK2; 10 µM 0 | MKNK1; 10 µM 0 | NTRK2; 10 µM 0 | NTRK3; 10 µM 0 | PAK4; 10 µM 0 | PBK; 10 µM 0 | PDGFRB; 10 µM 0 | PDK1; 10 µM 0

COc1ccc(S(=O)(=O)Nc2ccccc2CN(C)C/C=C/c2ccc(Cl)cc2)cc1 [KN-92 (phosphate)]
inactive: MAPK1; 2.5 µM 0 | MAPK4; 2.5 µM 0 | MAPKAPK2; 2.5 µM 0 | MKNK1; 2.5 µM 0 | NTRK2; 2.5 µM 0 | NTRK3; 2.5 µM 0 | PAK4; 2.5 µM 0 | PBK; 2.5 µM 0 | PDGFRB; 2.5 µM 0 | PDK1; 2.5 µM 0

O=C(O)c1ccc2c(c1)nc(Nc1cccc(Cl)c1)c1ccncc12 [Silmitasertib (sodium salt)]
inactive: MAPK1; 10 µM 0 | MAPK4; 10 µM 0 | MAPKAPK2; 10 µM 0 | MKNK1; 10 µM 0 | NTRK2; 10 µM 0 | NTRK3; 10 µM 0 | PAK4; 10 µM 0 | PBK; 10 µM 0 | PDGFRB; 10 µM 0 | PDK1; 10 µM 0

Two entries picked at random from those above:
c1cc(-c2cnn3cc(-c4ccc(OCCN5CCCCC5)cc4)cnc23)ccn1 [Dorsomorphin]
inactive: MAPK1; 2.5 µM 0 | MAPK4; 2.5 µM 0 | MAPKAPK2; 2.5 µM 0 | MKNK1; 2.5 µM 0 | NTRK2; 2.5 µM 0 | NTRK3; 2.5 µM 0 | PAK4; 2.5 µM 0 | PBK; 2.5 µM 0 | PDGFRB; 2.5 µM 0 | PDK1; 2.5 µM 0

O=C(O)c1ccc2c(c1)nc(Nc1cccc(Cl)c1)c1ccncc12 [Silmitasertib (sodium salt)]
inactive: MAPK1; 10 µM 0 | MAPK4; 10 µM 0 | MAPKAPK2; 10 µM 0 | MKNK1; 10 µM 0 | NTRK2; 10 µM 0 | NTRK3; 10 µM 0 | PAK4; 10 µM 0 | PBK; 10 µM 0 | PDGFRB; 10 µM 0 | PDK1; 10 µM 0

Reference: the supplement of paper PMC12823440, “Inhibitors supercharge kinase turnover through native proteolytic circuits” (Nature, 2025)
